Assay results published in PubChem BioAssay AID493014 (National Center for Advancing Translational Sciences (NCATS), 2011).
The other results are listed elsewhere or left out. Shown are side measurements of this screen, not its main read-out; they come without a call. Most of these compounds were active or inconclusive in the main read-out, so they are no random draw. Potencies come from curve fits of mixed quality, noted in brackets.

Assay: qHTS Assay to Find Inhibitors of Chronic Active B-Cell Receptor Signaling
Conditions: ABC-DLBCL IkBa-CBG/CBR reporter, luminescence ratio (green luciferase fused to IkBa over red control in TMD8 lymphoma cells), 4 h
How it was run: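 TMD8 ABC-DLBCL cells carrying doxycycline-inducible green luciferase fused to IkappaBalpha plus unfused red luciferase were exposed to compounds (up to 46 uM) for 4 hrs at 37C. Activity came from the overlap-corrected green/red luminescence ratio.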

[1] = measured here: CBR red luminescence, cell number
[2] = measured here: IkBa-CBG green luminescence

| Compound | AC50 [1] | AC50 [2] |
| --- | --- | --- |
| NC(=O)c1cn(C2OC(CO)C(O)C2O)c2ncnc(N)c12 (stereo not given) | 3.26 µM [falling, partial curve, poor fit] | – |
| Cn1c(O)c(/C=C2\C=c3ccccc3=NC2=O)c(=O)n(C)c1=O | 11.2 µM [falling, partial curve, poor fit] | – |
| Fc1ccccc1CCNCc1cccc(Cl)c1Cl | 11.2 µM [rising, partial curve, poor fit] | – |
| Cc1sc(C(=O)Nc2ccc3ccccc3c2)cc1CC(=O)O | 7.94 µM [falling, partial curve, poor fit] | – |
| Cc1c(NP(=O)(C(C)(C)C)C(C)(C)C)c(=O)n(-c2ccccc2)n1C | 35.5 µM [rising, partial curve, poor fit] | – |
| O=C1NC(=O)C(=Cc2cccc(OCCOc3ccccc3)c2)C(=O)N1 | 11.2 µM [falling, partial curve, poor fit] | – |
| COCCN1Cc2cc(=O)n3c([nH]c4ccccc43)c2C1=N | 28.2 µM [falling, partial curve, poor fit] | – |
| CCOc1ccccc1NC(=O)Cn1c(=O)oc2ccccc21 | 35.5 µM [falling, single point] | – |
| O=C(c1ccccc1)C(CN1CCCC1)c1ccccc1 (stereo not given) | 9.2 µM [falling, partial curve] | – |
| COc1ccc(/C=C2\C(=O)NC(=O)N(Cc3ccccc3)C2=O)c(OC)c1OC | 35.5 µM [falling, single point] | – |
| Cc1cc(O)c2c3c(c(=O)oc2c1)CCC(C)C3 (stereo not given) | 11.2 µM [rising, partial curve, poor fit] | – |
| COc1ccc([N+](=O)[O-])c(S(=O)(=O)c2ccccc2)n1 | 11.2 µM [falling, partial curve] | – |
| CCCCOP(=O)(c1ccc(N(C)C)cc1)C(Nc1ccccc1)c1ccccc1 (stereo not given) | 16.4 µM [falling, partial curve] | – |
| COC1CC(OC2CCC3(C)C(CCC4C3CCC3(C)C(C5=CC(=O)OC5)C(OC(C)=O)CC43O)C2)OC(C)C1OC1OC(COC2OC(CO)C(O)C(O)C2O)C(O)C(O)C1O (stereo not given) | 0.631 µM [rising, partial curve] | – |
| Nc1c(Cl)cc([N+](=O)[O-])cc1Cl | 20.6 µM [rising, single point] | – |
| O=C(c1ccc(Cl)cc1)C1CCCN(Cc2cccc3ncccc23)C1 (stereo not given) | 3.98 µM [rising, full curve, poor fit] | – |
| Cn1c(O)c(/C=C2\N=c3ccccc3=C2CCNC(=S)NC2CC2)c(=O)n(C)c1=O | 35.5 µM [rising, single point] | – |
| CC(C)(C)n1cc(C(=O)c2ccc3ccccc3c2O)cn1 | 6.31 µM [rising, partial curve, poor fit] | – |
| BrCC(Br)C1CCC(Br)C(Br)C1 (stereo not given) | 14.6 µM [falling, partial curve, poor fit] | – |
| COC(=O)[C@]12OC[C@]34C([C@@H](O)[C@@H]1O)[C@]1(C)CC(=O)C(O)=C(C)[C@@H]1C[C@H]3OC(=O)[C@H](O)[C@@H]24 (stereo not given in full) | 0.708 µM [falling, full curve] | – |

| Compound | AC50 [1] | AC50 [2] |
| --- | --- | --- |
| CC/C(=N\NC(=O)c1ccccc1O)c1c(O)n(Cc2ccccc2)c(=O)[nH]c1=O | 4.47 µM [falling, full curve] | – |
| COc1ccc(CCN(C)Cc2ccc(F)cc2F)cc1OC | 0.651 µM [rising, full curve, poor fit] | – |
| CC1CCN(CC(=O)c2ccccc2Cl)CC1 | 0.00517 µM [falling, full curve, poor fit] | – |
| NC(=S)N/N=C/c1coc2ccccc2c1=O | 1.3 µM [rising, full curve] | – |
| Cc1cc(C(=O)N=Nc2c(O)n(C)c3ccccc23)c(C)o1 | 29.1 µM [rising, single point] | – |
| COc1ccc(-n2c(/C=C/c3ccc4c(c3)OCO4)nc3ccccc3c2=O)cc1 | 16.4 µM [rising, single point] | – |
| Cc1ccc(NC(=O)CSc2ncnc3ccccc23)cc1S(=O)(=O)N1CCOCC1 | 15.8 µM [falling, single point] | – |
| CN1C2CCC1C(C(=O)O)C(OC(=O)c1ccccc1)C2 (stereo not given) | 16.4 µM [rising, partial curve, poor fit] | – |
| Cn1c2ccccc2c2cnn(CC(=O)N3CCC4(CC3)OCCO4)c(=O)c21 | 0.00517 µM [falling, full curve, poor fit] | – |
| O=C1/C(=C/c2ccccc2)C[C@@]2(O)[C@H]3Cc4ccc(O)c5c4[C@@]2(CCN3CC2CC2)C1O5 (stereo not given in full) | 3.66 µM [falling, full curve] | 14.6 µM [rising, partial curve, poor fit] |
| COc1cccc(CNCCc2cccc(F)c2)c1OC | 3.55 µM [rising, full curve, poor fit] | – |
| COc1ccc(C=C2C(=O)N(C)C(=O)N(C)C2=O)cc1COc1ccc(NC(C)=O)cc1 | 28.2 µM [rising, single point] | 35.5 µM [falling, partial curve, poor fit] |
| COc1ccc(OC)c(NC(=O)Cn2c(=O)oc3ccccc32)c1 | 5.62 µM [rising, single point] | – |
| COC(=O)C1=C(c2ccc(F)cc2OCc2ccccc2)C[C@@H]2CC[C@H]1N2C(=O)NCCCOC(C)C | 20.6 µM [falling, single point] | – |
| CC1CCCCN1Cc1c[nH]c2ccccc12 (stereo not given) | 35.5 µM [falling, single point] | – |
| CCCn1cc(CN2CCCC(C(=O)c3cccc(OC)c3)C2)c(C)n1 (stereo not given) | 5.62 µM [falling, single point] | – |
| COc1cc(CNCCN2CCOCC2)ccc1OCc1ccc(Cl)cc1Cl | 22.4 µM [falling, partial curve, poor fit] | – |
| C=CCN1C(=O)NC(=O)/C(=C/c2ccc(OCC(=O)Nc3ccc(C)cc3)cc2)C1=O | 35.5 µM [rising, single point] | – |
| C=C1C(=O)O[C@@H]2C[C@@H](C)[C@H]3C=CC(=O)[C@]3(O)C[C@@H]12 | 35.5 µM [falling, single point] | – |
| C=CCn1c(O)c(C=Nc2ccc(N(CC)CC)cc2)c(=O)[nH]c1=O | 6.51 µM [falling, single point] | – |

Whole records, quoted from the list.
Fc1ccccc1CCNCc1cccc(Cl)c1Cl as listed: AC50 [1]: 11.2 µM [rising, partial curve, poor fit]
Cc1sc(C(=O)Nc2ccc3ccccc3c2)cc1CC(=O)O as listed: AC50 [1]: 7.94 µM [falling, partial curve, poor fit]
CC/C(=N\NC(=O)c1ccccc1O)c1c(O)n(Cc2ccccc2)c(=O)[nH]c1=O as listed: AC50 [1]: 4.47 µM [falling, full curve]

Later entries

| Compound | AC50 [1] | AC50 [2] |
| --- | --- | --- |
| Cc1ccc2cc3cc(C(=O)N4CCCCC4C)oc3nc2c1 (stereo not given) | 15.8 µM [falling, single point] | – |
| Cc1ccc(C[n+]2c(-c3ccc(C)cc3)cc(-c3ccc(C)cc3)cc2-c2ccc(C)cc2)cc1 | 5.8 µM [falling, full curve] | 4.11 µM [rising, partial curve, poor fit] |
| O=C1NC(=O)N(c2ccc3c(c2)OCO3)C(=O)/C1=C/c1cccs1 | 12.6 µM [rising, partial curve] | – |
| c1ccc(-c2[nH]c[n+](CC3CO3)c2-c2ccccc2)cc1 (stereo not given) | 23.1 µM [falling, partial curve, poor fit] | – |
| O=C1NC(=O)C(CCc2ccccn2)(Cc2ccc3c(c2)OCO3)C(=O)N1CCc1ccccc1 (stereo not given) | 23.1 µM [falling, partial curve, poor fit] | – |
| CCN1CC2(COC(=O)c3ccccc3N)CCC(OC)C34C5CC6C(OC)CC(O)(C5C6OC)C(O)(C(OC)C23)C14 (stereo not given) | 32.6 µM [rising, single point] | – |
| COc1ccc(C2=NCc3nnc(C)n3-c3ccc(Cl)cc32)cc1Cl | 25.9 µM [rising, partial curve] | 32.6 µM [falling, partial curve, poor fit] |
| CNC(=O)O/N=C(\N)Cc1csc2ccc(Cl)cc12 | 35.5 µM [rising, single point] | – |
| CC1=CC(=C2C(=O)NC(=S)NC2=O)C=C(C(F)(F)F)N1Cc1ccccc1 | 2.82 µM [rising, single point] | – |
| Cc1cccc(NC(=O)c2cnc3sccn3c2=O)c1 | 0.708 µM [rising, full curve, poor fit] | – |
| Cn1cc(C(=O)OCC(=O)Nc2ccccc2Cl)c2ccccc21 | 3.26 µM [falling, partial curve] | – |
| Cn1c(O)c(C=NCc2ccco2)c(=O)n(C)c1=O | 4.11 µM [falling, full curve, poor fit] | – |
| CC[C@]12CC[C@H](O)CC1=CCC1C2CC[C@]2(C)C(=O)CCC12 (stereo not given in full) | 10.3 µM [rising, partial curve] | 23.1 µM [falling, partial curve, poor fit] |
| C/C(=N\NC(=O)c1ccccc1Cl)c1c(O)n(C2CCCCC2)c(=O)[nH]c1=O | 1.58 µM [falling, full curve] | – |
| CCOC(=O)c1c(C)[nH]c(C)c1C(=O)C(Cc1ccccc1)N(C)C (stereo not given) | 0.794 µM [rising, full curve, poor fit] | – |
| c1ccc(CSc2ccc(-c3ccccn3)nn2)nc1 | 11.2 µM [falling, partial curve, poor fit] | – |
| O=C(/C=C/c1ccc(Br)cc1)NC(=S)N1C[C@H]2C[C@H](C1)c1cccc(=O)n1C2 | 0.501 µM [falling, full curve, poor fit] | – |
| CCNC(=S)NCCC1=c2ccccc2=N/C1=C\c1c(O)n(C)c(=O)n(C)c1=O | 20 µM [falling, single point] | – |
| Cc1noc(C)c1C(=O)NNc1cc(Cl)ccc1Cl | 4.47 µM [rising, partial curve, poor fit] | – |
| O=C(CN1CC(c2ccccc2)CC1=O)Nc1ccccc1 (stereo not given) | 0.146 µM [rising, full curve, poor fit] | – |
